Test results: paper PMC3556083

B1: DLD (protein, UniProt Q6P6R2 36-509)
chain: SDQPIDADVTVIGSGPGGYVAAIKAAQLGFKTVCIEKNETLGGTCLNVGCIPSKALLNNSHYYHLAHGKDFASRGIEIPEVRLNLEKMMEQKRSAVKALTGGIAHLFKQNKVVHVNGFGKITGKNQVTATTADGSTQVIGTKNILIATGSEVTPFPGITIDEDTIVSSTGALSLKKVPEKLVVIGAGVIGVELGSVWQRLGADVTAVEFLGHVGGIGIDMEISKNFQRILQKQGFKFKLNTKVTGATKKSDGKIDVSVEAASGGKAEVITCDVLLVCIGRRPFTQNLGLEELGIELDPKGRIPVNTRFQTKIPNIFAIGDVVAGPMLAHKAEDEGIICVEGMAGGAVHIDYNCVPSVIYTHPEVAWVGKSEEQLKEEGVEFKVGKFPFAANSRAKTNADTDGMVKILGHKSTDRILGAHILGPGAGEMVNEAALALEYGASCEDVARVCHAHPTLSEAFREANLAASFGKPINF
B2: MLYCD (protein, UniProt Q920F5 39-492)
chain: MDELLRRAVPPTPAYELREKTPAPAEGQCADFVSFYGGLAEAAQRAELLGRLAQGFGVDHGQVAEQSAGVLQLRQQSREAAVLLQAEDRLRYALVPRYRGLFHHISKLDGGVRFLVQLRADLLEAQALKLVEGPHVREMNGVLKSMLSEWFSSGFLNLERVTWHSPCEVLQKISECEAVHPVKNWMDMKRRVGPYRRCYFFSHCSTPGDPLVVLHVALTGDISNNIQSIVKECPPSETEEKNRIAAAVFYSISLTQQGLQGVELGTFLIKRVVKELQKEFPHLGAFSSLSPIPGFTKWLLGLLNVQGKEYGRNELFTDSECKEIAEVTGDPVHESLKGLLSSGEWAKSEKLAQALQGPLMRLCAWYLYGEKHRGYALNPVANFHLQNGAVMWRINWMADSSLKGLTSSCGLMVNYRYYLEETGPNSISYLGSKNIKASEQILSLVAQFQSNSKL
B3: LONP1 (protein, UniProt Q924S5 66-950)
chain: LWDAGSRGGSDETSEGGVEDGATASSGEGPVVTALAPMTVPDVFPHLPLIAISRNPVFPRFIKIVEVKNKKLVELLRRKVRLAQPYVGVFLKRDDNNESDVVESLDEIYHTGTFAQIHEMQDLGDKLRMIVTGHRRIHISRQLEVEPEGLEPEAENKQKSRRKLKRGKKEVGDELGAKPQLEMVTEATSDTSKEVLMVEVENVAHEDFQVTEEVKALTAEIVKTIRDIIALNPLYRESVLQMMQAGQRVVDNPIYLSDMGAALTGAESHELQDVLEETNILKRLYKALSLLKKEFELSKLQQRLGREVEEKIKQTHRKYLLQEQLKIIKKELGLEKDDKDAIEEKFRERLKELVVPKHVMDVVDEELSKLALLDNHSSEFNVTRNYLDWLTSIPWGRQSDENLDLARAQSVLEEDHYGMEDVKKRVLEFIAVSQLRGSTQGKILCFHGPPGVGKTSIARSIARALGREYFRFSVGGMTDVAEIKGHRRTYVGAMPGKIIQCLKKTKTENPLVLIDEVDKIGRGYQGDPSSALLELLDPEQNANFLDHYLDVPVDLSKVLFICTANVTDTIPEPLRDRMEMINVSGYVAQEKLAIAERYLVPQARTLCGLDESKAQLSATVLTLLIKQYCRESGVRNLQKQVEKVLRKAAYKIVSGEAQTVHVTPENLQDFVGKPVFTVERMYDVTPPGVVMGLAWTAMGGSTLFVETSLRRPQPSGSKEDKDGSLEVTGQLGDVMKESARIAYTFARAFLMEQDPENDFLVTSHIHLHVPEGATPKDGPSAGCTIVTALLSLALGQPVLQNLAMTGEVSLTGKVLPVGGIKEKTIAAKRAGVTCIILPAENRKDFSDLAPFITEGLEVHFVEHYRDIFRIAFPLREHQEALAVER
B4: YWHAG (protein, UniProt P61983 1-247)
chain: MVDREQLVQKARLAEQAERYDDMAAAMKNVTELNEPLSNEERNLLSVAYKNVVGARRSSWRVISSIEQKTSADGNEKKIEMVRAYREKIEKELEAVCQDVLSLLDNYLIKNCSETQYESKVFYLKMKGDYYRYLAEVATGEKRATVVESSEKAYSEAHEISKEHMQPTHPIRLGLALNYSVFYYEIQNAPEQACHLAKTAFDDAIAELDTLNEDSYKDSTLIMQLLRDNLTLWTSDQQDDDGGEGNN
B5: FGA (protein, UniProt P06399 20-782)
chain: ADTGTTSEFIEAGGDIRGPRIVERQPSQCKETDWPFCSDEDWNHKCPSGCRMKGLIDEANQDFTNRINKLKNSLFDFQKNNKDSNSLTRNIMEYLRGDFANANNFDNTFGQVSEDLRRRIQILKRKVIEKAQQIQVLQKDVRDQLIDMKRLEVDIDIKIRSCKGSCSRSVSREINLKDYEGQQKQLEQVIAKDLLPAKDRQYLPAIKMSPVPDLVPGSFKSQLQEGPPEWKALTEMRQMRMELERPGKDGASRGDLPGDSRGDSATRGPGSKIENPMTPGHGGSGYWRPGSSGSGSDGNWGSGTTGSDDTGTWGAGSSRPSSGSGNLKPSNPDWGEFSEFGGSSSPATRKEYHTGKLVTSKGDKELLIGNEKVTSTGTSTTRRSCSKTITKTVLGNDGHREVVKEVVTSDDGSDCGDGMDLGLTHSFSGRLDELSRMHPELGSFYDSRFGSLTSNFKEFGSKTSDSDIFTDIENPSSHVPEFSSSSKTSTVRKQVTKSYKMADEAASEAHQEGDTRTTKRGRARTMRDCDDVLQTHPSGAQNGIFSIKLPGSSKIFSVYCDQETSLGGWLLIQQRMDGSLNFNRTWQDYKRGFGSLNDKGEGEFWLGNDYLHLLTLRGSVLRVELEDWAGKEAYAEYHFRVGSEAEGYALQVSSYQGTAGDALMEGSVEEGTEYTSHSNMQFSTFDRDADQWEENCAEVYGGGWWYNSCQAANLNGIYYPGGTYDPRNNSPYEIENGVLWVPFRGADYSLWAVRMKIRPLVGQ
B6: ALDH2 (protein, UniProt P11884 20-519)
chain: SAAATSAVPAPNQQPEVFCNQIFINNEWHDAVSKKTFPTVNPSTGEVICQVAEGNKEDVDKAVKAAQAAFQLGSPWRRMDASDRGRLLYRLADLIERDRTYLAALETLDNGKPYVISYLVDLDMVLKCLRYYAGWADKYHGKTIPIDGDFFSYTRHEPVGVCGQIIPWNFPLLMQAWKLGPALATGNVVVMKVAEQTPLTALYVANLIKEAGFPPGVVNIVPGFGPTAGAAIASHEDVDKVAFTGSTEVGHLIQVAAGSSNLKRVTLELGGKSPNIIMSDADMDWAVEQAHFALFFNQGQCCCAGSRTFVQEDVYDEFVERSVARAKSRVVGNPFDSRTEQGPQVDETQFKKILGYIKSGQQEGAKLLCGGGAAADRGYFIQPTVFGDVKDGMTIAKEEIFGPVMQILKFKTIEEVVGRANNSKYGLAAAVFTKDLDKANYLSQALQAGTVWINCYDVFGAQSPFGGYKMSGSGRELGEYGLQAYTEVKTVTVKVPQKNS
B7: PRDX5 (protein, UniProt Q9R063 52-213)
chain: MAPIKVGDTIPSVEVFEGEPGKKVNLAELFKDKKGVLFGVPGAFTPGCSKTHLPGFVEQAGALKAKGAQVVACLSVNDAFVTAEWGRAHQAEGKVQLLADPTGAFGKETDLLLDDSLVSLFGNRRLKRFSMVIDKGVVKALNVEPDGTGLTCSLAPNILSQL
B8: ECHS1 (protein, UniProt P14604 30-290)
chain: GANFQYIITEKKGKNSSVGLIQLNRPKALNALCNGLIEELNQALETFEEDPAVGAIVLTGGEKAFAAGADIKEMQNRTFQDCYSGKFLSHWDHITRIKKPVIAAVNGYALGGGCELAMMCDIIYAGEKAQFGQPEILLGTIPGAGGTQRLTRAVGKSLAMEMVLTGDRISAQDAKQAGLVSKIFPVETLVEEAIQCAEKIANNSKIIVAMAKESVNAAFEMTLTEGNKLEKKLFYSTFATDDRREGMSAFVEKRKANFKDH
B9: AMPD3 (protein, UniProt O09178 1-765)
chain: MPRQFPKLNMSDLDEHVRLLAEKVFAKVLREEDSKDVMSLFTVPKDCPIGQKEAKERELQKELAEQKSVETAKRKKSFKMIRSQSMSLQMPTQDWKGPPSVSPAMSPTTPLVLGAASKPGLAPYDMPEYQRATISGDYCAGITMEDYEQAAKSLAKALMIREKYARLAYHRFPRTTAQYLAHQGESVPLEEGLPDFHPPPLPQEDPYCLDDAPPNLGYLVRMQGGVLFVYDNQTMLERQEPHSLPYPDLETYIVDMSHILALITDGPTKTYCHRRLNFLESKFSLHEMLNEMSEFKELKSNPHRDFYNVRKVDTHIHAAACMNQKHLLRFIKYTYQTEPDRTVAEKLGRKITLRQVFDSLHMDPYDLTVDSLDVHAGRQTFHGFDKFNSKYNPVGASELRDLYLKTENYLGGEYFARMVKEVARELEDSKYQYSEPRLSIYGRSPKEWSSLARWFIQHKVYSPNMRWIIQVPRIYDIFRSKKLLPSFGKMLENIFLPLFQATINPQDHRELHLFLKYVTGFDSVDDESKHSDHMFSDKSPSPDLWTSEQNPPYSYYLYYMYANIMVLNNLRRERGLSTFLFRPHCGEAGSITHLVSAFLTADNISHGLLLKKSPVLQYLYYLAQIPIAMSPLSNNSLFLEYSKNPLREFLHKGLHVSLSTDDPMQFHYTKEALMEEYAIAAQVWKLSTCDLCEIARNSVLQSGLSHQEKQKFLGQNYYKEGPEGNDIRKTNVAQIRMAFRYETLCNELSFLSDAMKSEEITALAD
B10: MSRA (protein, UniProt Q923M1 21-233)
chain: MGDSSSKVISAEEALPGRTESIPVAAKHHVSGNRTVEPFPEGTQMAVFGMGCFWGAERKFWLLKGVYSTQVGFAGGYTRNPTYKEVCSEKTGHAEVVRVVYRPEHVSFEELLKVFWENHDPTQGMRQGNDCGTQYRSAVYPTSAVQMEAALKSKEEYQKVLSKHGFGPITTDIREGQVFYYAEDYHQQYLSKNPDGYCGLGGTGVSCPTAIKK
B11: HMGCL (protein, UniProt P97519 28-325)
chain: TLPKRVKIVEVGPRDGLQNEKSIVPTPVKIKLIDMLSEAGLPVIEATSFVSPKWVPQMADHSDVLKGIQKFPGINYPVLTPNMKGFEEAVAAGAKEVSIFGAASELFTRKNVNCSIEESFQRFDGVMQAARAASISVRGYVSCALGCPYEGKVSPAKVAEVAKKLYSMGCYEISLGDTIGVGTPGLMKDMLTAVLHEVPVAALAVHCHDTYGQALANTLVALQMGVSVVDSSVAGLGGCPYAKGASGNLATEDLVYMLTGLGIHTGVNLQKLLEAGDFICQALNRKTSSKVAQATCKL
B12: ECI1 (protein, UniProt P23965 29-289)
chain: FSNKRVLVEKEGEAGIAVMKFKNPPVNSLSLEFLTEFVISLEKLENDKSIRGVILTSERPGIFSAGLDLMEMYGRNPAHYAEYWKAVQELWLRLYLSNLTLISAINGASPAGGCLMALTCDYRIMADNSKYTIGLNESLLGIVAPFWLKDNYVNTIGHRAAERALQLGTLFPPAEALKVGLVDEVVPEDQVHSKARSVMAKWFTIPDHSRQLTKSMMRKATADNLIKQREADIQNFTSFISRDSIQKSLHVYLEKLKQKKG

Target: β2-adrenergic receptor (UniProt P07550)
Assay: affinity purification with mass spectrometry; purified Flag-β2AR in rHDL immobilised on M1 anti-Flag resin, occupied by 50 µM BI-167107 (full agonist) or 50 µM carazolol (inverse agonist); adult rat heart cytosol (10 mg/ml, 4 mM CaCl2) overnight at 4°C; eluted with FLAG peptide and EDTA; gel slices, LC-MS; proteins of the M1 resin, empty rHDL and Ni-NTA controls subtracted; hits of either or both samples; only the target purified

binding, binds:
B1, B2, B3, B4, B5, B6, B7, B8, B9, B10, B11, B12

Results are given in words; binding and its absence hold for the method and conditions named. In cells and extracts the contact can be indirect. Here binding means that the protein was enriched with, or labelled near, the bait; the list need not be complete.
